PubChem BioAssay AID1259314, Drosophila RNAi Screening Center | 2017

- Screen: 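Transmembrane protein genes affecting ATP after manganese overload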 (primary screen)
- Cells: Drosophila S2R+ cells
- Knock-down reagent: long dsRNA against Drosophila genes
- Timing: 5 days (4 days knock-down, then 1 day metal exposure)
- Challenge: manganese chloride added to 15 mM for 24 hours
- Detection: 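Cellular ATP measured by luciferase light, scaled to the plate mean, averaged across replicates and z-scored over plates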
- Direction: mean ATP z-score: higher = more ATP than the plate average, more viable cells under manganese
- Hit rule: 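Called active when the mean ATP z-score is above 1.5 or below -1.5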
- Calls: active = strong ATP change, up or down; inactive = no strong ATP change
This is one part, drawn at random, of about 3,100 reagents. Over the whole deposit, 289 (9.3%) were called active. 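Active includes both higher and lower ATP than plate average; check the z-score sign for direction.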 Unmarked entries are inactive. Reagents against one gene are numbered here. Names joined by + are all predicted targets of the reagent. Not given: the amount of reagent.

After knock-down of ninaE #1, the record shows mean ATP z-score 0.967.
Against ninaE #2, the values are mean ATP z-score -0.553.
For Sr-CIV #1, the entry reads mean ATP z-score 0.478.
Knock-down of Sr-CIV #2 gave: mean ATP z-score -0.283.
Knock-down of sesB #1 gave: mean ATP z-score -1.21.
sesB #2 gave mean ATP z-score -0.131.
For ATPsynC #1, the values are mean ATP z-score -2.38 (active).
ATPsynC #2 scored mean ATP z-score -0.477.
After knock-down of ZnT49B #1 the results were mean ATP z-score -0.684.
Against ZnT49B #2, the values are mean ATP z-score 0.442.
Gr98d #1 showed mean ATP z-score -0.0328.
Silencing of Gr98d #2 gave: mean ATP z-score 0.485.
CG8034 showed mean ATP z-score 0.392.
Ndae1 #1 gave mean ATP z-score 2.14 (active).
Against Ndae1 #2 the deposit lists mean ATP z-score -0.115.
CG33090 #1 gave mean ATP z-score -0.358.
After knock-down of CG33090 #2 the results were mean ATP z-score -0.604.
Depletion of CCKLR-17D1 #1 resulted in: mean ATP z-score 0.554.
CCKLR-17D1 #2 gave mean ATP z-score 0.09.
Depletion of CCKLR-17D1 #3 came out at: mean ATP z-score 0.197.
CG14647 #1 showed mean ATP z-score -1.13.
CG14647 #2 gave mean ATP z-score 0.193.
Silencing of slo came out at: mean ATP z-score 0.0458.
After knock-down of sog, the screen gave mean ATP z-score -0.287.
CG32512 #1 showed mean ATP z-score 0.128.
With knock-down of CG32512 #2, the record shows mean ATP z-score -0.238.
nAChRalpha6 #1 gave mean ATP z-score -1.34.
Depletion of nAChRalpha6 #2 gave: mean ATP z-score -0.498.
Depletion of kon #1 resulted in: mean ATP z-score 1.28.
After knock-down of kon #2, the record shows mean ATP z-score 0.0273.
Silencing of Or45a #1 resulted in: mean ATP z-score -0.644.
Or45a #2 scored mean ATP z-score -0.335.
After knock-down of CG15814 #1, the screen gave mean ATP z-score -0.103.
CG15814 #2 showed mean ATP z-score 0.85.
Knock-down of CG13793 #1 gave: mean ATP z-score 1.93 (active).
For CG13793 #2, the values are mean ATP z-score 0.264.
With knock-down of Serinc, the record shows mean ATP z-score 0.422.
Tsp42En scored mean ATP z-score 3.15 (active).
mthl6 #1 showed mean ATP z-score -0.619.
Against mthl6 #2 the deposit lists mean ATP z-score -0.577.
Knock-down of sing + Axs #1 came out at: mean ATP z-score -0.293.
sing + Axs #2 gave mean ATP z-score -0.602.
CG12121 #1 gave mean ATP z-score 0.0118.
CG12121 #2 scored mean ATP z-score 0.629.
Der-1 #1 scored mean ATP z-score -0.369.
After knock-down of Der-1 #2, the record shows mean ATP z-score -0.895.
With knock-down of CG4465 #1, the screen gave mean ATP z-score -0.147.
CG4465 #2 scored mean ATP z-score -0.31.
Silencing of CG6927 #1 gave: mean ATP z-score -0.276.
For CG6927 #2, the values are mean ATP z-score -0.202.
spin #1 showed mean ATP z-score -1.41.
Depletion of spin #2 resulted in: mean ATP z-score -0.773.
Osi4 #1 gave mean ATP z-score -0.543.
After knock-down of Osi4 #2, the screen gave mean ATP z-score 0.0128.
Knock-down of CG4025 came out at: mean ATP z-score 1.16.
mthl1 #1 showed mean ATP z-score -0.186.
With knock-down of mthl1 #2 the results were mean ATP z-score -0.885.
TM9SF2 #1 showed mean ATP z-score 0.366.
Against TM9SF2 #2, the entry reads mean ATP z-score -0.539.
With knock-down of mAChR-A, the record shows mean ATP z-score 0.369.

Entries above whose target name starts with D or d (2):
Der-1 #1 | mean ATP z-score = -0.369
Der-1 #2 | mean ATP z-score = -0.895
